According to publication doi:10.1101/2023.11.06.565834:
No constants are given. Whether binding was seen depends on the method and setting. In cells and extracts the contact can be indirect. Some results given as binding are weak or reduced against the parent protein; the word gives no strength. Tags and fused reporters may be left off the sequences shown.

T1: GST-CEP152 domain 1 (D1, residues 1-512) (human) (UniProt O94986)
T1 sequence: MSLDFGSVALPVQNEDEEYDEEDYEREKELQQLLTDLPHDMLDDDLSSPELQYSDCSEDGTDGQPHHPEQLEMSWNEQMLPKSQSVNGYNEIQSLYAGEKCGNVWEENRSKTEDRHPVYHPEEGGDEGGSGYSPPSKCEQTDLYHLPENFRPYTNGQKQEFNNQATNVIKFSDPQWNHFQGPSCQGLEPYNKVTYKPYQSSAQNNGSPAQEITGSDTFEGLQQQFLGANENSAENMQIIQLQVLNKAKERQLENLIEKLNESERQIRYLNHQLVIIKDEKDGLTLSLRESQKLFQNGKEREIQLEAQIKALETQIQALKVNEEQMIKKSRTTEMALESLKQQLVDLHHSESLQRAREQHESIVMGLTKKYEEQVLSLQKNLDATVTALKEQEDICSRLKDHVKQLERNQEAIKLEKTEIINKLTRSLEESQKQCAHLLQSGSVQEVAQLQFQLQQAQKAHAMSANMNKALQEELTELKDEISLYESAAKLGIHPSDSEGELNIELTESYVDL


Each binder was assayed against T1, GST-CEP152 domain 1 (D1, residues 1-512) (human) (assay: pull-down).

Binder | binding
His-MBP PLK4 PBD (571-970 residues) (domain or fragment, UniProt O00444 571-970) SKTRGMEPPWGYQNRTLRSITSPLVAHRLKPIRQKTKKAVVSILDSEEVCVELVKEYASQEYVKEVLQISSDGNTITIYYPNGGRGFPLADRPPSPTDNISRYSFDNLPEKYWRKYQYASRFVQLVRSKSPKITYFTRYAKCILMENSPGADFEVWFYDGVKIHKTEDFIQVIEKTGKSYTLKSESEVNSLKEEIKMYMDHANEGHRICLALESIISEEERKTRSAPFFPIIIGRKPGSTSSPKALSPPPSVDSNYPTRERASFNRMVMHSAASPTQAPILNPSMVTNEGLGLTTTASGTDISSNSLKDCLPKSAQLLKSVFVKNVGWATQLTSGAVWVQFNDGSQLVVQAGVSSISYTSPNGQTTRYGENEKLPDYIKQKLQCLSSILLMFSNPTPNFH | binds
His-MBP PLK4 L2+PB3 (814-970 residues) (domain or fragment, UniProt O00444 814-970) KALSPPPSVDSNYPTRERASFNRMVMHSAASPTQAPILNPSMVTNEGLGLTTTASGTDISSNSLKDCLPKSAQLLKSVFVKNVGWATQLTSGAVWVQFNDGSQLVVQAGVSSISYTSPNGQTTRYGENEKLPDYIKQKLQCLSSILLMFSNPTPNFH | no binding

The remaining lines, values ahead:

binding | Binder
no binding | His-MBP PLK4 PBD E774* mutant (domain or fragment, UniProt O00444 571-773) SKTRGMEPPWGYQNRTLRSITSPLVAHRLKPIRQKTKKAVVSILDSEEVCVELVKEYASQEYVKEVLQISSDGNTITIYYPNGGRGFPLADRPPSPTDNISRYSFDNLPEKYWRKYQYASRFVQLVRSKSPKITYFTRYAKCILMENSPGADFEVWFYDGVKIHKTEDFIQVIEKTGKSYTLKSESEVNSLKEEIKMYMDHAN
no binding | His-MBP PLK4 PBD double mutant K685/711A (domain or fragment, UniProt O00444 571-970) SKTRGMEPPWGYQNRTLRSITSPLVAHRLKPIRQKTKKAVVSILDSEEVCVELVKEYASQEYVKEVLQISSDGNTITIYYPNGGRGFPLADRPPSPTDNISRYSFDNLPEKYWRAYQYASRFVQLVRSKSPKITYFTRYAACILMENSPGADFEVWFYDGVKIHKTEDFIQVIEKTGKSYTLKSESEVNSLKEEIKMYMDHANEGHRICLALESIISEEERKTRSAPFFPIIIGRKPGSTSSPKALSPPPSVDSNYPTRERASFNRMVMHSAASPTQAPILNPSMVTNEGLGLTTTASGTDISSNSLKDCLPKSAQLLKSVFVKNVGWATQLTSGAVWVQFNDGSQLVVQAGVSSISYTSPNGQTTRYGENEKLPDYIKQKLQCLSSILLMFSNPTPNFH
no binding | His-MBP PLK4 PBD Δ774-813 (domain or fragment, UniProt O00444) SKTRGMEPPWGYQNRTLRSITSPLVAHRLKPIRQKTKKAVVSILDSEEVCVELVKEYASQEYVKEVLQISSDGNTITIYYPNGGRGFPLADRPPSPTDNISRYSFDNLPEKYWRKYQYASRFVQLVRSKSPKITYFTRYAKCILMENSPGADFEVWFYDGVKIHKTEDFIQVIEKTGKSYTLKSESEVNSLKEEIKMYMDHANKALSPPPSVDSNYPTRERASFNRMVMHSAASPTQAPILNPSMVTNEGLGLTTTASGTDISSNSLKDCLPKSAQLLKSVFVKNVGWATQLTSGAVWVQFNDGSQLVVQAGVSSISYTSPNGQTTRYGENEKLPDYIKQKLQCLSSILLMFSNPTPNFH
binds | His-MBP PLK4 CPB (571-820 residues) (domain or fragment, UniProt O00444 571-820) SKTRGMEPPWGYQNRTLRSITSPLVAHRLKPIRQKTKKAVVSILDSEEVCVELVKEYASQEYVKEVLQISSDGNTITIYYPNGGRGFPLADRPPSPTDNISRYSFDNLPEKYWRKYQYASRFVQLVRSKSPKITYFTRYAKCILMENSPGADFEVWFYDGVKIHKTEDFIQVIEKTGKSYTLKSESEVNSLKEEIKMYMDHANEGHRICLALESIISEEERKTRSAPFFPIIIGRKPGSTSSPKALSPPP
